# Measured values published in patent US20170106084A1.
# No constants are given. Whether binding was seen depends on the method and setting. For some of these results: Binding can be weak; no strength is given.
# Legend:
# [1] = target: microtubuli associated tau; assay: ELISA, coated antigen
# pTau(S422A) (human) = assay: Western blot on recombinant tau
# [2] = target: keyhole limpet hemocyanin; assay: condition: 1:5 dilution of supernatant; about 1 to 3% of the maximal value; ELISA, single point
binding [1],binding (pTau(S422A) (human)),binding [2],Binder
no binding,no binding (tested: 1 ug/ml),,"VH32/VL21 (antibody, V domains shown) VH: EVQVLESGGGLVQPGGSLRLSCAVSGFSLSSNAINWVRQAPGKGLEWVGYIAVSGNTYYASWAKGRFTISRDNSKNTVYLQMNSLRAEDTAVYYCGKSNIWGQGTLVTVSS VL: AQVMTQSPSSLSASVGDRVTITCRSSQSVRTNKLAWFQQKPGQPPKRLIYSASTLDFGVPSRFSGSGSGTEFTLTISSLQPEDFATYYCLGYFDSSADIVAFGGGTKVEIK"
no binding,no binding (tested: 1 ug/ml),,"VH32/VL22 (antibody, V domains shown) VH: EVQVLESGGGLVQPGGSLRLSCAVSGFSLSSNAINWVRQAPGKGLEWVGYIAVSGNTYYASWAKGRFTISRDNSKNTVYLQMNSLRAEDTAVYYCGKSNIWGQGTLVTVSS VL: AQVMTQSPSSLSASVGDRVTITCRSSQSVRTNRLAWFQQKPGQPPKRLIYSASTLDYGVPSRFSGSGSGTEFTLTISSLQPEDFATYYCLGYFDSSADIVAFGGGTKVEIK"
no binding,binds,,"VH00/VL00 (antibody, V domains shown) VH: QSVEESGGRLVTPGTPLTLTCTVSGFSLSSNAINWVRQAPGKGLEWIGYIAVSGNTYYASWAKGRFTISKASTTVDLKMTSPTAEDTGTYFCGKSNIWGPGTLVTVSL VL: AQVLTQTTSPVSAAVGSTVTISCQSSQSVRTNKLAWFQQKPGQPPKRLIYSASTLDFGVPSRFSASGSGTQFTLTISDVQCDDAATYYCLGYFDCSIADCVAFGGGTEVVVK"
,,no binding,"mAb 086 (antibody, V domains shown) VH: QSVEESGGRLVTPGTPLTLTCTVSGFSLSSNAINWVRQAPGKGLEWIGYIAVSGNTYYASWAKGRFTISKASTTVDLKMTSPTAEDTGTYFCGKSNIWGPGTLVTVSL VL: AQVLTQTTSPVSAAVGSTVTISCQSSQSVRTNKLAWFQQKPGQPPKRLIYSASTLDFGVPSRFSASGSGTQFTLTISDVQCDDAATYYCLGYFDCSIADCVAFGGGTEVVVK"
